From PubChem BioAssay record AID1159506 (NCATS, 2015).

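Luminescence from an EWS-FLI1 target-promoter (NR0B1) reporter, set against a CMV-promoter reporter, two days after silencing single genes in TC32 Ewing sarcoma cells. Each siRNA was applied at 20 nM. A z-score of the log NR0B1-over-CMV signal, less the median of siRNAs with the same seed; more negative means a stronger specific loss of the NR0B1 reporter.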

This is part of the screen; most of the strongest results are not listed here. Sequences are the guide (antisense) strand, without overhang.

strand,target gene,seed-corrected z-score
UAUGUUUUGGUAAACCAGC,GNA14,-0.5867
AAAUCAACCACUAAGGCAG,SYBU,1.964
UGAGCGAUUUGUCAUUAGC,MSH4,0.3482
UGCUGUACAACAACUGGUG,NUP155,1.489
ACUAGUAACCACAGCAUCU,RILPL2,0.04201
UCUGUCACUAGAGUAGGUC,TRERF1,-0.02739
UCUGAUUUGAUCCUUAAUG,GCOM1,0.407
UACGAUUCCAUCAGUUAGC,RMI1,1.416
UAAGUUAAGGCACAGAGCA,TMEM134,-0.9839
UGUCUAAUACCAUAUCUGC,SLC4A7,-0.1925
AUUGGGAUUAAAGUCAAGG,TSSC1,-0.3157
AUCAGGAUAAUCCCGCUGU,MPV17,0.02609
UUCUGGAUUAGCUGGAUUG,NRAS,-0.7549
AGCGCAACAAUAGUGUUGG,SLC34A2,0.02173
AAAUGUAACCUGUUGACCC,ARHGEF10L,-0.458
UUACGUACCACUGUCUCAC,TRPM8,1.893
UAGGUGACAAACAGGAUGG,HHATL,-0.4099
UAGUAAGACAUGGACAGGU,FTH1,0.4632
UUCUGGUAAAUCUACAUCC,PTGES3P3,-0.6292
AAAGGUGUAAAGGUUGUCA,SH2B3,-0.8303
UUCUCAACCUUGGUUAAUC,CNGA1,0.2197
UUGUUGUCCAGCAAGAAAC,HUS1,0.6482
UACCUUUUCCAUUAGGAUC,GRK7,-0.8191
UAUUUAUUAUUAGCCAGGA,SERHL2,-1.392
UCUCAUGCAACAGUUAAUU,LOC255187,-0.9201
UCCCUUGCACCUGUAAUGC,C5orf38,-0.3789
UUCUAGAAUAAUGCCCUGC,HINFP,-0.5623
ACUAGAGACAAUGUAAGCC,PRKRIR,0.4395
UGACUGGGAAGGAUGGGUG,LOC642696,0.5513
AUAUCUGAGAUGAAUUUCU,TAF10,0.1713
UGUAGUAAAGGACUCGUUC,GFM1,1.43
UCCGGAAUGACGGCACUCU,BMP4,1.234
AAUGGAAACCCGAACAACC,KHDC1,-0.137
UGGGCUUAUACAUAGGUGU,LOC646778,0.9717
UUGCGUGCUUCCUUGGUCU,RPL19,-1.187
UGAAUUACAAUUAGUAUGC,LINC00619,0.2341
UUGAGUCGAAGAUUAUACC,GRIK2,-0.1966
UCAGGGCUCAGUGUCUGCA,DUSP5,0.5782
UACUGAUCACACUUGAUCC,PTPRS,-0.2929
UAAACGAGCAUGUACUUCC,KANSL1L,-0.09648
UCUAGUAGCAUUGUCAAAC,RPS25P4,-0.02225
UACCGUGUAAUUUCGAGCG,ADAM12,-0.2739
UUCCGGAGGAAGUUGGUGC,PQLC2,-1.147
UGAAUGCUAAGAUUCAAGU,RAD9A,0.1308
UUUGGAUGAGCCUUUACGG,CCNI,0.5246
UCAUUGAUCCAUAACACGG,DHX40,-0.3059
ACCGAUUCCAGAUUCAUCU,LCN1,-0.05418
UACCAAACUAUAUAUGAGC,DNAJC25,-1.495
AAAGGUGUUCUGAAGCCGC,CCNI2,-1.053
UCUGUAAUCGGUGAUCUCU,ISG20,-0.06939
UCUUGAAUCAGCAAGUCCC,GIP,-0.2081
UAAUCGUGAUUGUGAAUCC,TTC13,0.1369
AAGGGUGAGACUUUCAGGC,KHK,-0.7602
UUGGUGAAUAGGAAGUUAC,EPAS1,-0.3442
UUCCGGGCAACUUGUUUCC,FGFBP1,0.2815
UUCAUACUCAACUUCGACC,ADSSL1,0.7146
UCAAAUGGUUGCCUGAUGC,PTPRCAP,-0.6276
UUCGCUUAAUGCUUACUCC,FGF14-AS2,-0.9255
AAACUGGUGAAUACAGGCC,CCNYL2,0.2993
AUUCUUAUCCCUAGACUCC,C12orf56,-0.2851
UUUCAUUAUUCAGUCUUCC,LECT1,0.6126
UCUGCAUCUACAGCUGUGC,TMEM155,0.2862
UCAACAGCCAGCUUGAUUC,ZC3H12D,0.5568
UCUAUAACCUGGUCAGGGC,IPO4,0.2855
AUCCUUGUCACCGAAGCUG,SNX30,-0.7575
UUUGUGGUAUGCUCAAUUC,ZBED5-AS1,-0.5527
AUAGUUGUAAUUGUCAGCC,PKP1,-0.057
AAACCUUUCGCCUUGACUG,SDHA,0.5746
UUCGAGCAUAAUAUUGUCC,BMPR2,-0.1983
UGACUUCAAACUUAGGACC,FRMPD2,-0.3348
UUGGAGGACAGGUCGAUGC,ELFN2,0.0339
UUCCGGAACAUUCUCUUGC,USH1G,0.359
UUUGUUCCCAUGGGUCUCU,SIGMAR1,-0.1559
UAUCCGCAGAUGGAAUUCC,WRAP73,0.2681
UCCCGAACAAUUGAUAGGC,TTF1,-0.6816
ACCGUUUCACCAUAUGCCG,C8orf87,-1.672
AAAGGAUUAACUCAUCUUU,KLHDC4,1.261
UUGGUUUCAAUAUAGAGAG,CHN1,-0.1738
UGCCUUUCUACAAUCUGCC,FAF1,-0.1435
AUAGAACUCAUCUGUGAGC,NXNL1,0.1442

10 of the entries, repeated:

{"strand": "UUGCGUGCUUCCUUGGUCU", "target gene": "RPL19", "seed-corrected z-score": "-1.187"}
{"strand": "ACUAGUAACCACAGCAUCU", "target gene": "RILPL2", "seed-corrected z-score": "0.04201"}
{"strand": "UACGAUUCCAUCAGUUAGC", "target gene": "RMI1", "seed-corrected z-score": "1.416"}
{"strand": "AUCAGGAUAAUCCCGCUGU", "target gene": "MPV17", "seed-corrected z-score": "0.02609"}
{"strand": "UAAGUUAAGGCACAGAGCA", "target gene": "TMEM134", "seed-corrected z-score": "-0.9839"}
{"strand": "UUGGUUUCAAUAUAGAGAG", "target gene": "CHN1", "seed-corrected z-score": "-0.1738"}
{"strand": "AAAUGUAACCUGUUGACCC", "target gene": "ARHGEF10L", "seed-corrected z-score": "-0.458"}
{"strand": "UAGGUGACAAACAGGAUGG", "target gene": "HHATL", "seed-corrected z-score": "-0.4099"}
{"strand": "AAAGGUGUAAAGGUUGUCA", "target gene": "SH2B3", "seed-corrected z-score": "-0.8303"}
{"strand": "UGGGCUUAUACAUAGGUGU", "target gene": "LOC646778", "seed-corrected z-score": "0.9717"}